# Experimental data: the supplement of paper PMC10849652
# Protein sequences, listed by entry. Tags and fused reporters are not part of them. Lines headed by an entry give the natural chain unless they say otherwise; changes in a name come on top.
# UniProt Q96KS0, whole entry, looked up: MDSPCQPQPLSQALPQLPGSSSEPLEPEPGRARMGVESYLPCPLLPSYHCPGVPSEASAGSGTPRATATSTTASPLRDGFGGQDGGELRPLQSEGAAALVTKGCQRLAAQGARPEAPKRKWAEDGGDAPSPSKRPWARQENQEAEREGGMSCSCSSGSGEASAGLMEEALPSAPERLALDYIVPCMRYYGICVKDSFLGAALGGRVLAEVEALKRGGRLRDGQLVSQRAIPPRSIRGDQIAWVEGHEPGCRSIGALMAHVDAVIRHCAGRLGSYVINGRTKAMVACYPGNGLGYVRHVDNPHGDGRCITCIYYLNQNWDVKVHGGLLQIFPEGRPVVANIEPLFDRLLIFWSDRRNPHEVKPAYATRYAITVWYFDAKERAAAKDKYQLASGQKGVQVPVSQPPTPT
# UniProt O14640: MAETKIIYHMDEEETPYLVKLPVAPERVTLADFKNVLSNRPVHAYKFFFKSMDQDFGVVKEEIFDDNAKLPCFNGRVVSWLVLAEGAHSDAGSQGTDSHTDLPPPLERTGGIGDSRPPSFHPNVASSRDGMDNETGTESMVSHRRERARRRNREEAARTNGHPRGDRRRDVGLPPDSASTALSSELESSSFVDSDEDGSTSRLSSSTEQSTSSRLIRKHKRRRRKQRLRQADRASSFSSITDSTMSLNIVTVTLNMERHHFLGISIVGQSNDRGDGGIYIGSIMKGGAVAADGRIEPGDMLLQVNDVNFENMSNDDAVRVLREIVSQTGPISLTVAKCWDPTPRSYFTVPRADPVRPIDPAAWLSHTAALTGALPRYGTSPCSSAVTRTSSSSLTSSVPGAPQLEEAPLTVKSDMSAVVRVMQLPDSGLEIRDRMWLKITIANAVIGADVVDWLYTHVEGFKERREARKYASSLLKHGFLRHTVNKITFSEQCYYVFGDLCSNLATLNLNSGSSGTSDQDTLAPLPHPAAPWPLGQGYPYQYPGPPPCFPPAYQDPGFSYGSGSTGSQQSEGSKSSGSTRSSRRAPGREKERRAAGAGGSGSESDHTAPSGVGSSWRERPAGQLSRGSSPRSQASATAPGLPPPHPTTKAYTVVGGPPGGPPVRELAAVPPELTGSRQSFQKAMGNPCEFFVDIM
# UniProt Q9UHF1: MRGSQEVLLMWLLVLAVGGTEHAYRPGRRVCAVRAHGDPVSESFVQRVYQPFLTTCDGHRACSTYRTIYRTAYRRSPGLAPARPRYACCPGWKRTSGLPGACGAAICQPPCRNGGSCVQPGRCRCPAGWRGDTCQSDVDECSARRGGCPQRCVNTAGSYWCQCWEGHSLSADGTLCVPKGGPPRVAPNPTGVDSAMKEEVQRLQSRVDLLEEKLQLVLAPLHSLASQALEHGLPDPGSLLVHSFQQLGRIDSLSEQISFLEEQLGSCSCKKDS
# UniProt A8K855: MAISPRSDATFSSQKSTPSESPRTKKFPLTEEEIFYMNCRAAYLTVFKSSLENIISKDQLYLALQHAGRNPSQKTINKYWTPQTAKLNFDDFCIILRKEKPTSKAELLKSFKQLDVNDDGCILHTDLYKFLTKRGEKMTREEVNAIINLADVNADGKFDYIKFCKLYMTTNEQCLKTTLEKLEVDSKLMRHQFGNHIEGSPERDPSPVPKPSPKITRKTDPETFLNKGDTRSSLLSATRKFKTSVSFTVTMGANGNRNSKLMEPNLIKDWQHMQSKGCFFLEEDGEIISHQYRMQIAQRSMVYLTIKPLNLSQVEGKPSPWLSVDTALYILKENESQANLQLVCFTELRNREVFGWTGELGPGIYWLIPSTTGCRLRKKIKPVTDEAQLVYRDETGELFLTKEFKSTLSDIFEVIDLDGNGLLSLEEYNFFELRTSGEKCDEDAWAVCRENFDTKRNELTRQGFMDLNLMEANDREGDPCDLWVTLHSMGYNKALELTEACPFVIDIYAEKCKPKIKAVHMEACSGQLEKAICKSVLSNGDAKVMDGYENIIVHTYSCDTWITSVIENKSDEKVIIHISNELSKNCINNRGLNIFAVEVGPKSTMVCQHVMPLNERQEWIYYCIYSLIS
# UniProt Q6ZPD9: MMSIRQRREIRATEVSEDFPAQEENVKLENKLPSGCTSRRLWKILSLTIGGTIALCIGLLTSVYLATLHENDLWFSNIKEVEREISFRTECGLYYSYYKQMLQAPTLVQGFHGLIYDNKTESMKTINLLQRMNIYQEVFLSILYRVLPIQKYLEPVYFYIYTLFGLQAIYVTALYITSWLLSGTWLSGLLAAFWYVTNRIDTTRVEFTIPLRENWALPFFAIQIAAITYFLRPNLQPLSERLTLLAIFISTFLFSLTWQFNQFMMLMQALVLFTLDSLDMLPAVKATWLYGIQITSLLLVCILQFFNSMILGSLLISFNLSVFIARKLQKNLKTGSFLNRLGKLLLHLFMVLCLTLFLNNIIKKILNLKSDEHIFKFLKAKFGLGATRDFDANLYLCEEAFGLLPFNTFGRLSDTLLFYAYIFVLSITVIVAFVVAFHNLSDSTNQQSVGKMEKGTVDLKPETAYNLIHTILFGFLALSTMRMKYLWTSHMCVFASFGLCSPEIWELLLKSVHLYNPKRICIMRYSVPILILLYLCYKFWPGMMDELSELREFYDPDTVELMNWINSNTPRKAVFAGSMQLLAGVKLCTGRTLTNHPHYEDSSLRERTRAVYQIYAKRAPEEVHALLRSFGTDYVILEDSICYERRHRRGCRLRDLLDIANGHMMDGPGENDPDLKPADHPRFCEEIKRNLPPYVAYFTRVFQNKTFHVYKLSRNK
# UniProt Q8N7B9: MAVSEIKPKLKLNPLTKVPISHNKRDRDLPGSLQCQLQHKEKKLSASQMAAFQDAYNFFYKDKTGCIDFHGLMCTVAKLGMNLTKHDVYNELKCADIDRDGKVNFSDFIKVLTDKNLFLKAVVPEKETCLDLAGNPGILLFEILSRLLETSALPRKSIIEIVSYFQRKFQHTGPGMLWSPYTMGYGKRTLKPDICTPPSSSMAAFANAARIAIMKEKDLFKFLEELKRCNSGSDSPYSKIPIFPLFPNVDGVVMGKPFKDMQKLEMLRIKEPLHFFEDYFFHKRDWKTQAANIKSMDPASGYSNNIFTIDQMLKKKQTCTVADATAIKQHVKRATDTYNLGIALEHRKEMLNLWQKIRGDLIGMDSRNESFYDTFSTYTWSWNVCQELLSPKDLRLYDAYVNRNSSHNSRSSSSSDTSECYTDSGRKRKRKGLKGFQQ
# UniProt Q92782, whole entry, looked up: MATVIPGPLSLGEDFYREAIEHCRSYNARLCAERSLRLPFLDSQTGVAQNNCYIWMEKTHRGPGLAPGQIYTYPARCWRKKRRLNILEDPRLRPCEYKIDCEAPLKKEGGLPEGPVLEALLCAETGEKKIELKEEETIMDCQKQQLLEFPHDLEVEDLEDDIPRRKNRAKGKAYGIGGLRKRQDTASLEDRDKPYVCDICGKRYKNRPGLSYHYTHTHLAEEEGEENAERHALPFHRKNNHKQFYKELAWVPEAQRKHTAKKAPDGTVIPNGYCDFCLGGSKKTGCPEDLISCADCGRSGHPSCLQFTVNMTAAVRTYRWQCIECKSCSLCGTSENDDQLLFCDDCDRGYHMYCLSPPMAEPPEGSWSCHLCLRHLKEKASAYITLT
# The list shows a part of the results.
# Tests used:
# Assay in all cases: log2 fold change, soluble protein after heating vs DMSO (PISA); higher = thermal stabilisation; K562 lysate, 10 uM; active = over 0.2 and 3.5 SD of the protein, either way, in both replicates (recomputed)
# [1] = compound: CN1CC[C@H](c2c(O)cc(O)c3c(=O)cc(-c4ccccc4Cl)oc23)[C@H](O)C1 [alvocidib]
# Procedure, shortened: (§1)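 Quantification was by TMTpro 16plex LC-MS/MS with equalised channel sums, applied to the supernatant after 21,000xg for 90 min. Samples were crude K562 extract at 1 mg/mL protein in PBS pH 7.4 with 1 mM MgCl2, treated with 10 μM compound for 30 min, heated for 3 min across 48°C-58°C, pooled and brought to 0.5% NP-40 at 4°C. Values are log-two fold changes in thermal stability relative to solvent controls, from duplicates.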
# [2] = compound: CN1CCc2c(c3ccccc3n2Cc2ccc(C(=O)NO)cc2)C1 [Tubastatin A]
# Procedure, shortened: as §1
# [3] = compound: CNC(=O)c1ccc(Nc2ncc(C(F)(F)F)c(NCc3nccnc3N(C)S(C)(=O)=O)n2)cc1 [defactinib]
# Procedure, shortened: as §1
# [4] = compound: COC(=O)N[C@@H](C)CNc1nccc(-c2cn(C(C)C)nc2-c2cc(Cl)cc(NS(C)(=O)=O)c2F)n1 [encorafenib]
# Procedure, shortened: as §1
# [5] = compound: COC(=O)[C@H](CCSC)NC(=O)C1=C(C=C(C=C1)NC[C@H](CS)N)C2=CC=CC=C2
# Procedure, shortened: as §1
# [6] = compound: C[C@@H](Oc1cc(-c2cnn(C3CCNCC3)c2)cnc1N)c1c(Cl)ccc(F)c1Cl [crizotinib]
# Procedure, shortened: as §1
# [7] = compound: C[C@H](C1=CC=C(C=C1)C(=O)NC2=C3C=CNC3=NC=C2)N
# Procedure, shortened: as §1
# [8] = compound: Cc1cc(Nc2cc(CN3CCOCC3)c3nc(C)c(Cc4ccc(Cl)cc4F)n3n2)n[nH]1 [gandotinib]
# Procedure, shortened: as §1
# [9] = compound: Cc1cc(Nc2cc(N3CCN(C)CC3)nc(Sc3ccc(NC(=O)C4CC4)cc3)n2)n[nH]1 [tozasertib]
# Procedure, shortened: as §1
# [10] = compound: Cc1ccc(-n2nc(C(C)(C)C)cc2NC(=O)Nc2ccc(OCCN3CCOCC3)c3ccccc23)cc1 [doramapimod]
# Procedure, shortened: as §1
# [11] = compound: Cc1cccc(CC(=O)N2CCc3c2ccc(-c2cn(C)c4ncnc(N)c24)c3F)n1
# Procedure, shortened: as §1
# [12] = compound: CNc1nc(-c2ccc3c(N)n[nH]c3c2)cc(N2C[C@@H](C(=O)NC3CCCCC3)CC[C@H]2C)n1
# Procedure, shortened: as §1
# [13] = compound: COc1cc2nc(-c3cc(F)ccc3O)nc(N[C@@H]3CNC[C@H]3C(C)(C)O)c2cc1OC
# Procedure, shortened: as §1
# [14] = compound: CS(=O)(=O)CCNCc1ccc(-c2ccc3ncnc(Nc4ccc(OCc5cccc(F)c5)c(Cl)c4)c3c2)o1 [lapatinib]
# Procedure, shortened: as §1
# [15] = compound: CS(=O)(=O)N1CCN(Cc2cc3nc(-c4cccc5[nH]ncc45)nc(N4CCOCC4)c3s2)CC1 [pictilisib]
# Procedure, shortened: as §1
# [16] = compound: C[C@H](Nc1ncnc2nc[nH]c12)c1cc2cccc(Cl)c2c(=O)n1-c1ccccc1 [duvelisib]
# Procedure, shortened: as §1
# [17] = compound: Cc1ccc(NC(=O)c2ccc(CN3CC[C@H](N(C)C)C3)c(C(F)(F)F)c2)cc1Nc1nccc(-c2cncnc2)n1 [bafetinib]
# Procedure, shortened: as §1
# [18] = compound: CNC(=O)C1=CC=CC=C1NC2=NC(=NC=C2Cl)NC3=C(C=C(C=C3)N4CCOCC4)OC
# Procedure, shortened: as §1
target,measurement,setting,value
EGLN2 (UniProt Q96KS0),log2 fold change,[1],inactive: 0.064
same,log2 fold change,[2],inactive: 0.062
same,log2 fold change,[3],inactive: 0.216
same,log2 fold change,[4],inactive: 0.017
same,log2 fold change,[5],inactive: 0.007
same,log2 fold change,[6],inactive: 0.258
same,log2 fold change,[7],inactive: 0.252
same,log2 fold change,[8],inactive: -0.117
same,log2 fold change,[9],inactive: 0.229
same,log2 fold change,[10],inactive: 0.026
same,log2 fold change,[11],inactive: -0.068
DVL1 (UniProt O14640),log2 fold change,[3],inactive: -0.142
same,log2 fold change,[4],inactive: 0.164
same,log2 fold change,[5],inactive: 0.088
same,log2 fold change,[9],inactive: 0.148
EGFL7 (UniProt Q9UHF1),log2 fold change,[3],inactive: -0.094
EFCAB7 (UniProt A8K855),log2 fold change,[2],inactive: 0.137
DRAP1 (UniProt E9PQX9),log2 fold change,[1],inactive: 0.052
same,log2 fold change,[3],inactive: -0.102
same,log2 fold change,[12],inactive: 0.188
same,log2 fold change,[4],inactive: 0.188
same,log2 fold change,[5],inactive: 0.003
same,log2 fold change,[13],inactive: 0.056
same,log2 fold change,[14],inactive: -0.038
same,log2 fold change,[15],inactive: 0.07
same,log2 fold change,[7],inactive: -0.075
same,log2 fold change,[16],inactive: -0.021
same,log2 fold change,[8],inactive: 0.067
same,log2 fold change,[9],inactive: 0.048
same,log2 fold change,[17],inactive: -0.067
same,log2 fold change,[11],inactive: 0.005
DPY19L3 (UniProt Q6ZPD9),log2 fold change,[18],inactive: -0.105
same,log2 fold change,[3],inactive: -0.039
same,log2 fold change,[4],inactive: 0
same,log2 fold change,[5],inactive: -0.096
same,log2 fold change,[13],inactive: -0.042
same,log2 fold change,[14],inactive: -0.077
same,log2 fold change,[15],inactive: -0.268
same,log2 fold change,[6],inactive: -0.107
same,log2 fold change,[9],inactive: 0.057
same,log2 fold change,[10],inactive: -0.081
same,log2 fold change,[17],inactive: -0.113
DST isoform 3 (UniProt Q03001),log2 fold change,[1],inactive: 0.386
same,log2 fold change,[18],inactive: -0.061
same,log2 fold change,[4],inactive: 0.008
same,log2 fold change,[5],inactive: -0.004
same,log2 fold change,[15],inactive: 0.049
same,log2 fold change,[7],active: 1.39
same,log2 fold change,[8],inactive: -0.243
same,log2 fold change,[9],inactive: -0.056
same,log2 fold change,[17],inactive: -0.118
same,log2 fold change,[11],inactive: -0.224
EFCAB3 (UniProt Q8N7B9),log2 fold change,[18],inactive: 0.083
same,log2 fold change,[13],inactive: -0.104
same,log2 fold change,[14],inactive: -0.097
same,log2 fold change,[6],inactive: 0.094
same,log2 fold change,[10],inactive: 0
DPF1 isoform 2 (UniProt Q92782),log2 fold change,[2],inactive: 0.056
same,log2 fold change,[18],inactive: 0.023
same,log2 fold change,[3],inactive: 0.165
same,log2 fold change,[12],inactive: -0.005
same,log2 fold change,[4],inactive: 0.069
same,log2 fold change,[5],inactive: 0.004
same,log2 fold change,[13],inactive: -0.17
same,log2 fold change,[14],inactive: -0.059
same,log2 fold change,[15],inactive: 0.074
same,log2 fold change,[6],inactive: 0.042
same,log2 fold change,[16],inactive: -0.216
same,log2 fold change,[9],inactive: 0.097
same,log2 fold change,[10],inactive: 0.055
same,log2 fold change,[17],inactive: -0.007

# Fetched one by one from the list above (three):
target,measurement,setting,value
DPY19L3 (UniProt Q6ZPD9),log2 fold change,[15],inactive: -0.268
DRAP1 (UniProt E9PQX9),log2 fold change,[5],inactive: 0.003
DPY19L3 (UniProt Q6ZPD9),log2 fold change,[18],inactive: -0.105
